Results are given in words; binding and its absence hold for the method and conditions named. Binding seen in cells or lysates may run through a third protein. Some binding calls cover weakened binding; strength is not graded here.
T1: PF4–YFPn (full-length / intact platelet factor 4) (UniProt P02776)
T1 sequence: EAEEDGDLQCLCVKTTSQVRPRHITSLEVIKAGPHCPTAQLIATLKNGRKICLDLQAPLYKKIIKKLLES

T2: truncated PF4–YFPn with 1–31 aa signal peptide deleted (UniProt P02776)
T2 sequence: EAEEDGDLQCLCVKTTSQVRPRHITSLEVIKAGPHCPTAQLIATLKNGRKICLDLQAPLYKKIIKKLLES


Tests used:
[1] = target: T1, PF4–YFPn (full-length / intact platelet factor 4); experiment: split reporter; HT-BiFC screen: HTC-75 cells stably expressing PF4–YFPn bait infected with YFPc-tagged prey retroviruses from the human ORFeome v7.1 library (18,414 ORFs); fluorescent cells sorted in rounds until > 90% positive, preys identified by Illumina/Solexa sequencing
[2] = target: T2, truncated PF4–YFPn with 1–31 aa signal peptide deleted; experiment: split reporter; BiFC of single pairs: HTC75 cells expressing PF4–YFPn (full-length or truncated) and a YFPc-tagged partner, yellow fluorescence read by flow cytometry (positive rate); non-fused YFPc as negative control; n = 3

binding [1] | binding [2] | Binder
binds |  | TGFBRIII–YFPc (type III TGFβ receptor) (receptor, UniProt Q03167 21-851) GPEPGALCELSPVSASHPVQALMESFTVLSGCASRGTTGLPQEVHVLNLRTAGQGPGQLQREVTLHLNPISSVHIHHKSVVFLLNSPHPLVWHLKTERLATGVSRLFLVSEGSVVQFSSANFSLTAETEERNFPHGNEHLLNWARKEYGAVTSFTELKIARNIYIKVGEDQVFPPKCNIGKNFLSLNYLAEYLQPKAAEGCVMSSQPQNEEVHIIELITPNSNPYSAFQVDITIDIRPSQEDLEVVKNLILILKCKKSVNWVIKSFDVKGSLKIIAPNSIGFGKESERSMTMTKSIRDDIPSTQGNLVKWALDNGYSPITSYTMAPVANRFHLRLENNAEEMGDEEVHTIPPELRILLDPGALPALQNPPIRGGEGQNGGLPFPFPDISRRVWNEEGEDGLPRPKDPVIPSIQLFPGLREPEEVQGSVDIALSVKCDNEKMIVAVEKDSFQASGYSGMDVTLLDPTCKAKMNGTHFVLESPLNGCGTRPRWSALDGVVYYNSIVIQVPALGDSSGWPDGYEDLESGDNGFPGDMDEGDASLFTRPEIVVFNCSLQQVRNPSSFQEQPHGNITFNMELYNTDLFLVPSQGVFSVPENGHVYVEVSVTKAEQELGFAIQTCFISPYSNPDRMSHYTIIENICPKDESVKFYSPKRVHFPIPQADMDKKRFSFVFKPVFNTSLLFLQCELTLCTKMEKHPQKLPKCVPPDEACTSLDASIIWAMMQNKKTFTKPLAVIHHEAESKEKGPSMKEPNPISPPIFHGLDTLTVMGIAFAAFVIGALLTGALWYIYSHTGETAGRQQVPTSPPASENSSAAHSIGSTQSTPCSSSSTA
 | binds | truncated TGFBRIII (21-787)-YFPc (domain or fragment, UniProt Q03167 21-787) GPEPGALCELSPVSASHPVQALMESFTVLSGCASRGTTGLPQEVHVLNLRTAGQGPGQLQREVTLHLNPISSVHIHHKSVVFLLNSPHPLVWHLKTERLATGVSRLFLVSEGSVVQFSSANFSLTAETEERNFPHGNEHLLNWARKEYGAVTSFTELKIARNIYIKVGEDQVFPPKCNIGKNFLSLNYLAEYLQPKAAEGCVMSSQPQNEEVHIIELITPNSNPYSAFQVDITIDIRPSQEDLEVVKNLILILKCKKSVNWVIKSFDVKGSLKIIAPNSIGFGKESERSMTMTKSIRDDIPSTQGNLVKWALDNGYSPITSYTMAPVANRFHLRLENNAEEMGDEEVHTIPPELRILLDPGALPALQNPPIRGGEGQNGGLPFPFPDISRRVWNEEGEDGLPRPKDPVIPSIQLFPGLREPEEVQGSVDIALSVKCDNEKMIVAVEKDSFQASGYSGMDVTLLDPTCKAKMNGTHFVLESPLNGCGTRPRWSALDGVVYYNSIVIQVPALGDSSGWPDGYEDLESGDNGFPGDMDEGDASLFTRPEIVVFNCSLQQVRNPSSFQEQPHGNITFNMELYNTDLFLVPSQGVFSVPENGHVYVEVSVTKAEQELGFAIQTCFISPYSNPDRMSHYTIIENICPKDESVKFYSPKRVHFPIPQADMDKKRFSFVFKPVFNTSLLFLQCELTLCTKMEKHPQKLPKCVPPDEACTSLDASIIWAMMQNKKTFTKPLAVIHHEAESKEKGPSMKEPNPISPPIFHGLDTLTV

— publication PMC9016031
